Measurements from the supplement of paper PMC8728848.
The list shows a part of the results.

Tests used:
Assay in all cases: glycan array binding signal (z-score within array); higher = stronger binding
Conditions in all cases: glycan notation: IUPAC condensed, linker removed
[1] = molecular target: Neu5Ac(a2-6)Gal(b1-4)GlcNAc(b1-2)Man(a1-3)[Neu5Ac(a2-3)Gal(b1-4)GlcNAc(b1-2)Man(a1-6)]Man(b1-4)GlcNAc(b1-4)GlcNAc
In short: (§1)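 Glycan array binding is given as a within-array Z-score, which can be read as non-binding when negative. The arrays, 3228 of them, came from the Consortium for Functional Glycomics database and were retained only where the protein sequence was available. Z-scores were averaged across arrays of the same protein sequence at different concentrations or buffers and across linkers.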

[2] = molecular target: Neu5Ac(a2-6)Gal(b1-4)GlcNAc(b1-2)Man(a1-3)[Neu5Ac(a2-6)Gal(b1-4)GlcNAc(b1-2)Man(a1-6)]Man(b1-4)GlcNAc(b1-4)GlcNAc
In short: as §1

[3] = molecular target: Neu5Ac(a2-6)Gal(b1-4)GlcNAc(b1-2)Man(a1-3)[Neu5Ac(a2-6)Gal(b1-4)GlcNAc(b1-2)Man(a1-6)]Man(b1-4)GlcNAc(b1-4)[Fuc(a1-6)]GlcNAc
In short: as §1

[4] = molecular target: Neu5Ac(a2-6)Gal(b1-4)GlcNAc(b1-2)Man(a1-6)Man(b1-4)GlcNAc(b1-4)GlcNAc
In short: as §1

[5] = molecular target: Neu5Ac(a2-6)Gal(b1-4)GlcNAc(b1-2)Man(a1-6)[Gal(b1-4)GlcNAc(b1-2)Man(a1-3)]Man(b1-4)GlcNAc(b1-4)GlcNAc
In short: as §1

[6] = molecular target: Neu5Ac(a2-6)Gal(b1-4)GlcNAc(b1-2)Man(a1-6)[GlcNAc(b1-2)Man(a1-3)]Man(b1-4)GlcNAc(b1-4)GlcNAc
In short: as §1

[7] = molecular target: Neu5Ac(a2-6)Gal(b1-4)GlcNAc(b1-2)Man(a1-6)[Man(a1-3)]Man(b1-4)GlcNAc(b1-4)GlcNAc
In short: as §1

[8] = molecular target: Neu5Ac(a2-6)Gal(b1-4)GlcNAc(b1-2)[Neu5Ac(a2-6)Gal(b1-4)GlcNAc(b1-4)]Man(a1-3)[GlcNAc(b1-4)][Neu5Ac(a2-6)Gal(b1-4)GlcNAc(b1-2)[Neu5Ac(a2-6)Gal(b1-4)GlcNAc(b1-6)]Man(a1-6)]Man(b1-4)GlcNAc(b1-4)GlcNAc
In short: as §1

[9] = molecular target: Neu5Ac(a2-6)Gal(b1-4)GlcNAc(b1-2)[Neu5Ac(a2-6)Gal(b1-4)GlcNAc(b1-4)]Man(a1-3)[GlcNAc(b1-4)][Neu5Ac(a2-6)Gal(b1-4)GlcNAc(b1-4)Man(a1-6)]Man(b1-4)GlcNAc(b1-4)GlcNAc
In short: as §1

[10] = molecular target: Neu5Ac(a2-6)Gal(b1-4)GlcNAc(b1-2)[Neu5Ac(a2-6)Gal(b1-4)GlcNAc(b1-6)]Man(a1-6)[Neu5Ac(a2-6)Gal(b1-4)GlcNAc(b1-2)Man(a1-3)][GlcNAc(b1-4)]Man(b1-4)GlcNAc(b1-4)GlcNAc
In short: as §1

[11] = molecular target: Neu5Ac(a2-6)Gal(b1-4)GlcNAc(b1-3)Gal(b1-3)GlcNAc
In short: as §1

[12] = molecular target: Neu5Ac(a2-6)Gal(b1-4)GlcNAc(b1-3)Gal(b1-4)GlcNAc
In short: as §1

[13] = molecular target: Neu5Ac(a2-6)Gal(b1-4)GlcNAc(b1-3)Gal(b1-4)GlcNAc(b1-2)Man(a1-3)[Neu5Ac(a2-6)Gal(b1-4)GlcNAc(b1-3)Gal(b1-4)GlcNAc(b1-2)Man(a1-6)]GalNAc
In short: as §1

[14] = molecular target: Neu5Ac(a2-6)Gal(b1-4)GlcNAc(b1-3)Gal(b1-4)GlcNAc(b1-3)Gal(b1-4)GlcNAc
In short: as §1

[15] = molecular target: Neu5Ac(a2-6)Gal(b1-4)GlcNAc(b1-3)Gal(b1-4)GlcNAc(b1-3)Gal(b1-4)GlcNAc(b1-2)Man(a1-3)[Neu5Ac(a2-6)Gal(b1-4)GlcNAc(b1-3)Gal(b1-4)GlcNAc(b1-3)Gal(b1-4)GlcNAc(b1-2)Man(a1-6)]GalNAc
In short: as §1

[16] = molecular target: Neu5Ac(a2-6)Gal(b1-4)GlcNAc(b1-3)Gal(b1-4)GlcNAc(b1-3)GalNAc
In short: as §1

[17] = molecular target: Neu5Ac(a2-6)Gal(b1-4)GlcNAc(b1-3)Gal(b1-4)GlcNAc(b1-3)[Neu5Ac(a2-6)Gal(b1-4)GlcNAc(b1-3)Gal(b1-4)GlcNAc(b1-6)]GalNAc
In short: as §1

[18] = molecular target: Neu5Ac(a2-6)Gal(b1-4)GlcNAc(b1-3)Gal(b1-4)GlcNAc(b1-6)[Gal(b1-3)]GalNAc
In short: as §1

[19] = molecular target: Neu5Ac(a2-6)Gal(b1-4)GlcNAc(b1-3)Gal(b1-4)[Fuc(a1-3)]GlcNAc(b1-3)Gal(b1-4)[Fuc(a1-3)]GlcNAc
In short: as §1

[20] = molecular target: Neu5Ac(a2-6)Gal(b1-4)GlcNAc(b1-3)GalNAc
In short: as §1

[21] = molecular target: Neu5Ac(a2-6)Gal(b1-4)GlcNAc(b1-3)[Neu5Ac(a2-6)Gal(b1-4)GlcNAc(b1-6)]GalNAc
In short: as §1

[22] = molecular target: Neu5Ac(a2-6)Gal(b1-4)GlcNAc(b1-6)GalNAc
In short: as §1

[23] = molecular target: Neu5Ac(a2-6)Gal(b1-4)GlcNAc(b1-6)[Gal(b1-3)GlcNAc(b1-3)]Gal(b1-4)Glc
In short: as §1

[24] = molecular target: Neu5Ac(a2-6)Gal(b1-4)GlcNAc(b1-6)[Gal(b1-3)]GalNAc
In short: as §1

[25] = molecular target: Neu5Ac(a2-6)Gal(b1-4)GlcNAc6S
In short: as §1

Neu5Ac(a2-6)GalNAc = molecular target: Neu5Ac(a2-6)GalNAc
In short: as §1

[26] = molecular target: Neu5Ac(a2-6)GalNAc(b1-4)GlcNAc
In short: as §1

[27] = molecular target: Neu5Ac(a2-6)GalNAc(b1-4)GlcNAc6S
In short: as §1

[28] = molecular target: Neu5Ac(a2-6)GlcNAc(b1-4)GlcNAc
In short: as §1

[29] = molecular target: Neu5Ac(a2-6)GlcNAc(b1-4)GlcNAc(b1-4)GlcNAc
In short: as §1

B1: SP15308F-bth-333-19-333 (Bacteroides thetaiotaomicron) (protein)
chain: SCNNEWESEQYVQMVSFKAPVNAQGVTPIYIRYKPEGKVTYQLPLIVSGSTMNSKDLNVHVGLDLDTLDVLNVEHFGSRKELFFKPLENKYYEFPETVQIPAGECTSLLPIDFALKDLDQVDKWVLPLAIQSNDPSHNYQANPRKFYRRAMLRISPFNDYSGQYSATAYKVYFKGNEKEAIVPEYHTSYVIDDKTIFFYAGLIDIDRLDRKYYKIKFEFTEEKIDLQTRKLKISSDNEDINLVVKGQPSYTVEEEMDATRPYLKHIYVTINNLEYEFTDYTSVPGYPLEYVVKGSLTMERKINTQIPDEDQAIEW
For B1, the “glycan array binding signal (z-score)” value [1] was -0.439, the “glycan array binding signal (z-score)” value [2] was 0 and the “glycan array binding signal (z-score)” value [3] was 0.193. For the same binder, the “glycan array binding signal (z-score)” value [4] was -0.588, the “glycan array binding signal (z-score)” value [5] was 0.535 and the “glycan array binding signal (z-score)” value [6] was 0.292. For the same binder, the “glycan array binding signal (z-score)” value [7] was -0.056, the “glycan array binding signal (z-score)” value [8] was -0.18 and the “glycan array binding signal (z-score)” value [9] was -1.16. For the same binder, the “glycan array binding signal (z-score)” value [10] was 0.627, the “glycan array binding signal (z-score)” value [11] was -0.227 and the “glycan array binding signal (z-score)” value [12] was -1.1. The “glycan array binding signal (z-score)” value [13] was 3.27, the “glycan array binding signal (z-score)” value [14] was -0.92 and the “glycan array binding signal (z-score)” value [15] was 2.6. For the same binder, the “glycan array binding signal (z-score)” value [16] was 0.907, the “glycan array binding signal (z-score)” value [17] was 0.784 and the “glycan array binding signal (z-score)” value [18] was 1.51. For the same binder, the “glycan array binding signal (z-score)” value [19] was -0.571, the “glycan array binding signal (z-score)” value [20] was -0.489 and the “glycan array binding signal (z-score)” value [21] was -0.503. The “glycan array binding signal (z-score)” value [22] was -0.694, the “glycan array binding signal (z-score)” value [23] was -0.927 and the “glycan array binding signal (z-score)” value [24] was -0.014. For the same binder, the “glycan array binding signal (z-score)” value [25] was -0.026, the “glycan array binding signal (z-score)” value (Neu5Ac(a2-6)GalNAc) was 0.006 and the “glycan array binding signal (z-score)” value [26] was -0.518. The “glycan array binding signal (z-score)” value [27] was -0.552, the “glycan array binding signal (z-score)” value [28] was -0.425 and the “glycan array binding signal (z-score)” value [29] was -0.92.
